Measurements as given in paper PMC12678802, “Tudor-based proteomic strategy pan-specifically enriches and identifies protein arginine methylation” (EMBO Reports, 2025).
These are yes or no findings as the source states them, for the method shown. Binding seen in cells or lysates may run through a third protein. Some binding calls cover weakened binding; strength is not graded here.

Protein sequences, listed by entry. Tags and fused reporters are not part of them.
UniProt O15371: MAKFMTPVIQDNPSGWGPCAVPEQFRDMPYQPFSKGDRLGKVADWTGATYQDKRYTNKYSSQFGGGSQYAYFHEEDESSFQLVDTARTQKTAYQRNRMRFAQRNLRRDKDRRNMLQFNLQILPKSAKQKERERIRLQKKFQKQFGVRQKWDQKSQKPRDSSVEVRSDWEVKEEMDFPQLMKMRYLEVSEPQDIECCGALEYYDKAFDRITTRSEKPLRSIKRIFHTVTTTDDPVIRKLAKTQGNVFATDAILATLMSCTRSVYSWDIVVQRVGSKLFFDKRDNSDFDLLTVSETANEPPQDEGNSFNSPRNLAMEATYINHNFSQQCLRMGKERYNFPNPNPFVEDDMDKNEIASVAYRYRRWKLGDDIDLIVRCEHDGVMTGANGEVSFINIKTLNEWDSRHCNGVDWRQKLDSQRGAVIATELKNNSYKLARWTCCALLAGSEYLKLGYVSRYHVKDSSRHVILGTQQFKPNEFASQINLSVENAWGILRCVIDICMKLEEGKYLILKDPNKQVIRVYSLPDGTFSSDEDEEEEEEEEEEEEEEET
UniProt Q9Y262: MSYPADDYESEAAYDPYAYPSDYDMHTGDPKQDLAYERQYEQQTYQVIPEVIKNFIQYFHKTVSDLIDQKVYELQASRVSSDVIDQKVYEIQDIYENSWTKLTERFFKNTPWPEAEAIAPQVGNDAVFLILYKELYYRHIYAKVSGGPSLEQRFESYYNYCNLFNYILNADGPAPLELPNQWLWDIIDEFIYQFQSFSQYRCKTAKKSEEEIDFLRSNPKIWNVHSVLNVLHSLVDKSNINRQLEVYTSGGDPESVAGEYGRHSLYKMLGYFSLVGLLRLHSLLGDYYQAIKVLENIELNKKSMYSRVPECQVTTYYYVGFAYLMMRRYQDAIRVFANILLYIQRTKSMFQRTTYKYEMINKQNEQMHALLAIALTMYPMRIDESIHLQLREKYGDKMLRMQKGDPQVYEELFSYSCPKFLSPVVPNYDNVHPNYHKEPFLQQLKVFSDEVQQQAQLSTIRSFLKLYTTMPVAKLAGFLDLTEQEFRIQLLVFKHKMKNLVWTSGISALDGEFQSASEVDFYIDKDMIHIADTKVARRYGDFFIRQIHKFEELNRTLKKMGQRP
UniProt Q99613: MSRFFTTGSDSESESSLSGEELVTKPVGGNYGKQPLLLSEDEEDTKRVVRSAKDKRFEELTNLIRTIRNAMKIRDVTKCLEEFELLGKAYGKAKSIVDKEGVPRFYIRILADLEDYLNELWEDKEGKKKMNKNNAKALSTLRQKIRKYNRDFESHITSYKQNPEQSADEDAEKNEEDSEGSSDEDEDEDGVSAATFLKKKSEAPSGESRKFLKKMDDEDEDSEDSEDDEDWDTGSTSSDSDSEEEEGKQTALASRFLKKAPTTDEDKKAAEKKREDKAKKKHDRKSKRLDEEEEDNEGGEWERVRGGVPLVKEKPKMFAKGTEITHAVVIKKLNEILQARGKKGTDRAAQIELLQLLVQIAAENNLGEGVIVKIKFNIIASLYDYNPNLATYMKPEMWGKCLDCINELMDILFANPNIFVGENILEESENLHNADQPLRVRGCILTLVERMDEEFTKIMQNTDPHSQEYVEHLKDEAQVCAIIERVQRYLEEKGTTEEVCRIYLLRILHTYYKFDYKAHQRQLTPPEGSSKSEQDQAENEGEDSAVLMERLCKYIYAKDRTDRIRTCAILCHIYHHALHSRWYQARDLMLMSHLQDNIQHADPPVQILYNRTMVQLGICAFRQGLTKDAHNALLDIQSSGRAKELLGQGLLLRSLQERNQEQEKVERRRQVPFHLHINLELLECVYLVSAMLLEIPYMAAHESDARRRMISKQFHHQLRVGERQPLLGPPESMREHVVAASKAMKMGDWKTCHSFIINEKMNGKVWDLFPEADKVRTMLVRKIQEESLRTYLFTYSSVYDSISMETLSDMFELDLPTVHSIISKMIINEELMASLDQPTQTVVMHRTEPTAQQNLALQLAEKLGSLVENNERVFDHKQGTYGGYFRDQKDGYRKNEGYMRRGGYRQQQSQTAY
UniProt Q9UBQ5: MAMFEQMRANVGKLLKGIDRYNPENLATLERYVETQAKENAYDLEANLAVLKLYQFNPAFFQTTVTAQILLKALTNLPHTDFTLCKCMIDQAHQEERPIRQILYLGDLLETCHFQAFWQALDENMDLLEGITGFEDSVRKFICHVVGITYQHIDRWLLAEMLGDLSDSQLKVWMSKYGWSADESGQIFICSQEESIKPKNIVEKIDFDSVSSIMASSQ

Assays:
[1] = biological target: Myc-eIF3D (full-length human eIF3D with a C-terminal Myc-tag and His6-tag) (human) (UniProt O15371); experiment: co-IP; HEK293T co-transfected with Myc-eIF3D and Flag-PRMT1 (or empty pcDNA3.1); anti-Myc antibody and Protein A magnetic beads; western blot
[2] = biological target: Full-length Flag-Myc-eIF3L (human) (UniProt Q9Y262); experiment: co-IP; Flag-Myc-eIF3L transfected into HEK293T; lysate (50 mM HEPES-KOH pH 7.5, 150 mM KCl, 5 mM MgCl2, 0.5% NP-40) incubated with anti-DYKDDDDK magnetic agarose beads overnight at 4 °C; washed three times with 500 mM KCl buffer; eluted with 100 mM glycine pH 2.8; eluate on Coomassie stained SDS-PAGE
[3] = biological target: Flag-Myc-eIF3L (full-length human eIF3L with a C-terminal Flag-tag and Myc-tag) (human) (UniProt Q9Y262); experiment: co-IP; HEK293T transfected with Flag-Myc-eIF3L; anti-DYKDDDDK magnetic agarose beads overnight at 4 °C; washes with 500 mM KCl; eluted with 100 mM glycine pH 2.8; western blot, Coomassie stain and MS

Row | binding [2] | other results | Substance
1 |  | binding [1]: binds | Flag-PRMT1 (full-length human PRMT1 with an N-terminal Flag-tag and His6-tag) (from UniProt Q99873-1 1-371) (enzyme)
2 | binds |  | eIF3 subunit c (band labelled 'c' in the purified eIF3 complex) (from UniProt Q99613 1-913)
3 | binds |  | eIF3 subunit k (band labelled 'k' in the purified eIF3 complex) (from UniProt Q9UBQ5 1-218)
4 |  | binding [3]: binds | eIF3D (endogenous, in the eIF3 complex) (from UniProt O15371 1-548)
